Results on 5 molecules are retold here after article PMC4172902.

Sequences of proteins named here, by UniProt entry; tags and fusion partners are left off. Residues count along the entry.
UniProt P40939, residues 37-763: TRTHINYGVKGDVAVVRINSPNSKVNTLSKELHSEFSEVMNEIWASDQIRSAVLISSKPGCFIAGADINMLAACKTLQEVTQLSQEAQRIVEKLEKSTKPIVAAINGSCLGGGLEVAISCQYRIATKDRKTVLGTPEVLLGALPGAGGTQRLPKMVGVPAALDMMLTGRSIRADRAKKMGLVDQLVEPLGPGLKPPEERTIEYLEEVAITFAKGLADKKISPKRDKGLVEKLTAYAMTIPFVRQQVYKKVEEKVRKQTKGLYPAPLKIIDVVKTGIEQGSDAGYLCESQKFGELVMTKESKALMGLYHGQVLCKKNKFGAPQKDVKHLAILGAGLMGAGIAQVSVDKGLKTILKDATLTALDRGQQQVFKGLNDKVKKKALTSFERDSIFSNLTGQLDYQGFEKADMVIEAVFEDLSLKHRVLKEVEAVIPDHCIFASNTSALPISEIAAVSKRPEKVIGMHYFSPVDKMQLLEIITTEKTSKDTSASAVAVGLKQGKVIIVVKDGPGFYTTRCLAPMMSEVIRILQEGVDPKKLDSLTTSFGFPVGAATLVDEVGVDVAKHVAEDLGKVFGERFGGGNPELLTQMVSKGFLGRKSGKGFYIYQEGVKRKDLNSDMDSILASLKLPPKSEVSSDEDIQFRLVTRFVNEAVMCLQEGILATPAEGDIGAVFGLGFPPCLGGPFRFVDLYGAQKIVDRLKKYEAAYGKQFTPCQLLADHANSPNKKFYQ
UniProt P12235: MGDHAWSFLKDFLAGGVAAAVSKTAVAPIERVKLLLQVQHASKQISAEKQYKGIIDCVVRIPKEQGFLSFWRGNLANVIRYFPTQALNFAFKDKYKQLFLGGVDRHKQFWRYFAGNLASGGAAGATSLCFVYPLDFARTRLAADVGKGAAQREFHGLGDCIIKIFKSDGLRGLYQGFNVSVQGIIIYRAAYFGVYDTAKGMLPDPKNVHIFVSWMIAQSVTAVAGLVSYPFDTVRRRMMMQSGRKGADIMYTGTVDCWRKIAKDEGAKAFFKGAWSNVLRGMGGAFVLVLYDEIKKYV
UniProt P09874: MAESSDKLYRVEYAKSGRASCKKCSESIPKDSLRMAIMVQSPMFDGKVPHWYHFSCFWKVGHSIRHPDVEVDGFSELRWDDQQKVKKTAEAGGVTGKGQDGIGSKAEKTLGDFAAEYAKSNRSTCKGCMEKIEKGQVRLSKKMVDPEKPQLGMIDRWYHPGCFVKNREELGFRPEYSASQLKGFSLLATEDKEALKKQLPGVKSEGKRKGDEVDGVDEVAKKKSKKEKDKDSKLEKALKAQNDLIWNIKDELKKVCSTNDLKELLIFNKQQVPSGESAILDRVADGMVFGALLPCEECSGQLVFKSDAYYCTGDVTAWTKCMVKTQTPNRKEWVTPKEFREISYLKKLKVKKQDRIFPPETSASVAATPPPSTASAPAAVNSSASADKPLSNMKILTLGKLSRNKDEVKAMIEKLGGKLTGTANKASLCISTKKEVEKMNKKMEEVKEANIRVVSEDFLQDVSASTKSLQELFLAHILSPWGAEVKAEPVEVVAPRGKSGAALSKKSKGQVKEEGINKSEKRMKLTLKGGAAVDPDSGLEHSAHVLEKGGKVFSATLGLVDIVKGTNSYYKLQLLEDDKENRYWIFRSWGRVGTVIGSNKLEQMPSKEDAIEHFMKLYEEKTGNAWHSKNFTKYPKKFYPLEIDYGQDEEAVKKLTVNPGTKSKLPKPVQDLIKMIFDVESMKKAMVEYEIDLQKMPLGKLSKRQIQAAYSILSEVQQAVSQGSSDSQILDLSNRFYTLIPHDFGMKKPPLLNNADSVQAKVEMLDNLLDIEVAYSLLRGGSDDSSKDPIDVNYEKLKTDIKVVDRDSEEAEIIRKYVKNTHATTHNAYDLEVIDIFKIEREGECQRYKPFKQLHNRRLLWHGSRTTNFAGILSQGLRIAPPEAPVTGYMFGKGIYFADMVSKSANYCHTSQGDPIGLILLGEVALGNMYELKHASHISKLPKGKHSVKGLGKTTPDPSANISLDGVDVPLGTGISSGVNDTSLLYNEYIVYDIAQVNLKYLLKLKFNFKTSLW

Assay [1] deals with T1, hMCC-SBP-6×His (human MCC isoform 1 with a C-terminal SBP-6×His tag) (human) (UniProt P23508).
T1 sequence: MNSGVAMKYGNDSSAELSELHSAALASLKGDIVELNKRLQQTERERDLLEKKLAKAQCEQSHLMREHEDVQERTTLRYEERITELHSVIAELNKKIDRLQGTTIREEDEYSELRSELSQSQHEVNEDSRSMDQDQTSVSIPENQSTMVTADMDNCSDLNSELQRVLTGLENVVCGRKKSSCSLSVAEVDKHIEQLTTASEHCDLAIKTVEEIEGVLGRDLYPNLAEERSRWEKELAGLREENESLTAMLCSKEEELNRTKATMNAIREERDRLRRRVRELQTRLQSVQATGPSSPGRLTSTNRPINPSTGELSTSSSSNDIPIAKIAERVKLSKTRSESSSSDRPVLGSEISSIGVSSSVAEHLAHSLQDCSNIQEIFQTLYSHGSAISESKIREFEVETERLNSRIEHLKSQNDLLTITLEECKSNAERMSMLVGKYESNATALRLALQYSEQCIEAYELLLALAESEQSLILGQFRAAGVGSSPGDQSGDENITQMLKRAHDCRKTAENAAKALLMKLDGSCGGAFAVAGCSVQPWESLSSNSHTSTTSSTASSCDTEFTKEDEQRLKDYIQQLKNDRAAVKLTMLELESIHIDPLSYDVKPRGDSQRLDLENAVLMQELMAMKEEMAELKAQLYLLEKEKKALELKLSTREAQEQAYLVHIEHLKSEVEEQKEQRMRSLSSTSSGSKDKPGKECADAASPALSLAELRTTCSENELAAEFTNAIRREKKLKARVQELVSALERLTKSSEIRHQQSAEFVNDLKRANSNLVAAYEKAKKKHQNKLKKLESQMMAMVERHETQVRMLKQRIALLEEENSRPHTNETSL
Nature of the assay: affinity purification with mass spectrometry; lysates of purified mitochondria of 8226 cells with hMCC-SBP-6×His; streptavidin-sepharose beads; LC-MS/MS of gel slices; FLAG-hMCC cells as negative control.

Assay [2] deals with T1, hMCC-SBP-6×His (human MCC isoform 1 with a C-terminal SBP-6×His tag) (human). Briefly: affinity purification with mass spectrometry; whole cell lysates of 8226 cells with hMCC-SBP-6×His; streptavidin-sepharose beads; LC-MS/MS of gel slices; FLAG-hMCC cells as negative control.
The target is the same in assay [3]. Described as above. This is another data set of the same source.

These are yes or no findings as the source states them, for the method shown. In cells and extracts the contact can be indirect. These calls come from enrichment with a bait or labelling near it, and not all partners need be listed. Tags and fused reporters may be left off the sequences shown.

For ECHA (from UniProt P40939 37-763), the binding result in assay [1] was “binds”.

With ADT1 (from UniProt P12235 1-298), in assay [1], the binding entry is on record as “binds”.

For “Poly [ADP-ribose] polymerase 1 (from UniProt P09874 1-1014)”, the binding entry in assay [2] and in assay [1] was “binds” throughout.

B1: ADT3 (protein, UniProt P12236 1-298)
chain: MTEQAISFAKDFLAGGIAAAISKTAVAPIERVKLLLQVQHASKQIAADKQYKGIVDCIVRIPKEQGVLSFWRGNLANVIRYFPTQALNFAFKDKYKQIFLGGVDKHTQFWRYFAGNLASGGAAGATSLCFVYPLDFARTRLAADVGKSGTEREFRGLGDCLVKITKSDGIRGLYQGFSVSVQGIIIYRAAYFGVYDTAKGMLPDPKNTHIVVSWMIAQTVTAVAGVVSYPFDTVRRRMMMQSGRKGADIMYTGTVDCWRKIFRDEGGKAFFKGAWSNVLRGMGGAFVLVLYDELKKVI
On to B1, for which, in assay [1], the binding entry is reported as “binds”.

B2: MCC isoform 2 (1019 aa) (protein, UniProt P23508-2 1-1019)
chain: MMAAAAAAAAGSSSSGGGGGGSGSSSSSSDTSSTGEEERMRRLFQTCDGDGDGYISRNDLLMVCRQLNMEESVAEIMNQLGADENGKISFQDFTRCRMQLVREIRKEEVDLSAKSDNSCTKKLRDRIASWPTSSDNSLGALSAARESWEYDSGARDLQSPDVQSQSALQKLLEYGGSSLHQQAALHKLLTQSPHIGNSVGGSYLELANTLHSAALASLKGDIVELNKRLQQTERERDLLEKKLAKAQCEQSHLMREHEDVQERTTLRYEERITELHSVIAELNKKIDRLQGTTIREEDEYSELRSELSQSQHEVNEDSRSMDQDQTSVSIPENQSTMVTADMDNCSDLNSELQRVLTGLENVVCGRKKSSCSLSVAEVDKHIEQLTTASEHCDLAIKTVEEIEGVLGRDLYPNLAEERSRWEKELAGLREENESLTAMLCSKEEELNRTKATMNAIREERDRLRRRVRELQTRLQSVQATGPSSPGRLTSTNRPINPSTGELSTSSSSNDIPIAKIAERVKLSKTRSESSSSDRPVLGSEISSIGVSSSVAEHLAHSLQDCSNIQEIFQTLYSHGSAISESKIREFEVETERLNSRIEHLKSQNDLLTITLEECKSNAERMSMLVGKYESNATALRLALQYSEQCIEAYELLLALAESEQSLILGQFRAAGVGSSPGDQSGDENITQMLKRAHDCRKTAENAAKALLMKLDGSCGGAFAVAGCSVQPWESLSSNSHTSTTSSTASSCDTEFTKEDEQRLKDYIQQLKNDRAAVKLTMLELESIHIDPLSYDVKPRGDSQRLDLENAVLMQELMAMKEEMAELKAQLYLLEKEKKALELKLSTREAQEQAYLVHIEHLKSEVEEQKEQRMRSLSSTSSGSKDKPGKECADAASPALSLAELRTTCSENELAAEFTNAIRREKKLKARVQELVSALERLTKSSEIRHQQSAEFVNDLKRANSNLVAAYEKAKKKHQNKLKKLESQMMAMVERHETQVRMLKQRIALLEEENSRPHTNETSL
Regarding B2, the binding result in assay [3] and in assay [1] was “binds” each time.
